# Several values for one entry are separate records, joined by “and”; a condition that tells them apart may be missing. Equal entries are not always repeated. This is one part of the list. Each value is one well over the wells without odorant, computed here; the data are noisy.
# How the values were obtained:
# Experiment in all cases: odorant receptor activation (CRE luciferase / Renilla) (fold of no-odor wells); higher = more activation
# Conditions in all cases: 100 µM
# OR7C2 clone 1292 = test system: OR7C2 clone 1292
# OR7D2 clone 1405 = test system: OR7D2 clone 1405
# OR7D4 clone 1298 = test system: OR7D4 clone 1298
# OR7E24 P242S clone 1314 = test system: OR7E24 P242S clone 1314
# OR7G1 clone 1295 = test system: OR7G1 clone 1295
# [1] = test system: OR7G2 V263A/F281V clone 1312
# OR7G2 clone 1475 = test system: OR7G2 clone 1475
# OR7G3 clone 1297 = test system: OR7G3 clone 1297
# OR8A1 clone 1503 = test system: OR8A1 clone 1503
# OR8B12 clone 1731 = test system: OR8B12 clone 1731
# [2] = test system: OR8B3 H20R/Q24R/V34I/M114I clone 1727
# OR8B4 E22G clone 1227 = test system: OR8B4 E22G clone 1227
# [3] = test system: OR8B4 Y131H/C140F/C178R clone 1440
# OR8B8 clone 1226 = test system: OR8B8 clone 1226
# OR8B8 clone 1504 = test system: OR8B8 clone 1504
# OR8D1 clone 1142 = test system: OR8D1 clone 1142
# OR8D2 clone 1179 = test system: OR8D2 clone 1179
# [4] = test system: OR8D4 C120Y/R133K/F200L/L283P/R298K clone 1072
# OR8G1 clone 1395 = test system: OR8G1 clone 1395
# OR8G5 clone 1323 = test system: OR8G5 clone 1323
Structure (SMILES),odorant receptor activation (OR7C2 clone 1292),odorant receptor activation (OR7D2 clone 1405),odorant receptor activation (OR7D4 clone 1298),odorant receptor activation (OR7E24 P242S clone 1314),odorant receptor activation (OR7G1 clone 1295),odorant receptor activation [1],odorant receptor activation (OR7G2 clone 1475),odorant receptor activation (OR7G3 clone 1297),odorant receptor activation (OR8A1 clone 1503),odorant receptor activation (OR8B12 clone 1731),odorant receptor activation [2],odorant receptor activation (OR8B4 E22G clone 1227),odorant receptor activation [3],odorant receptor activation (OR8B8 clone 1226),odorant receptor activation (OR8B8 clone 1504),odorant receptor activation (OR8D1 clone 1142),odorant receptor activation (OR8D2 clone 1179),odorant receptor activation [4],odorant receptor activation (OR8G1 clone 1395),odorant receptor activation (OR8G5 clone 1323)
CC=Cc1ccc(O)c(OC)c1 [isoeugenol],1.18 and 1.13,1.18,0.994 and 1.5,1.36 and 1.2,0.807 and 1.06,1.54 and 0.994,1.24 and 2.24,0.826 and 1.17,1.59 and 2.08,6.4,3.85,0.995,1.36,0.98,1.42 and 2.19,1.01,1.13,3.4,1.24,0.945 and 1.25
CCCCCOC(C)=O [n-amyl acetate],0.552,0.971,0.564,0.692,0.575,0.357,1.09 and 0.809,0.695,0.866 and 0.784,0.81,0.429,0.6,0.933,0.54,0.69 and 0.879,0.751,0.598,2.14,0.827,0.548
CCCCO [1-butanol],1.06,0.705,0.976,0.715,1.16,0.775,1.19,0.611,1.08,0.744,0.149,1.12,0.986,1.15,1.16,0.94,0.827,2.3,1.37,1
COC(=O)c1ccccc1 [methyl benzoate],0.874,0.98,0.832,0.888,0.833,0.56,1.01 and 0.717,1.32,0.829 and 1.07,,,0.871,0.81,0.625,0.572 and 1.2,1.01,0.94,2.19,1.02,1.09
CCC1(O)C2(C)CCC(C2)C1(C)C (stereo unspecified) [2-ethylfenchol],0.931,0.782,1,0.613,1.14,0.871,1.09,0.665,1.27,0.933,0.401,1.19,0.701,1.44,1.19,0.683,0.935,2.39,0.746,0.742
C=CCc1ccc(OC)c(OC)c1 [eugenol methyl ether],1.29,1.5,1.57,1.34,1.6,1.42,1.05,1.5,2.23,0.798,0.628,1.67,1.58,1.65,1.36,1.91,1.38,2.03,1.67,1.51
CCCCCCCC=CC=O [2-decenal],0.896,2,1.22,0.996,1.57,1.34,1.32,0.855,1.47,0.97,0.381,1.47,1.19,0.884,2.58,1.07,0.978,3.46,2.74,0.772
CC(=O)c1ccccc1 [acetophenone],2.01,0.988,1.85,1.39,1.58,0.492,1.23 and 0.501,2.76,0.765 and 0.975,,,1.04,1.09,1.01,0.783 and 0.94,1.76,0.967,1.24,1.03,0.892
O=C1CCCCCCCCCCCC(=O)OCCO1 [ethylene brassylate],1.32,1.53,1.21,1.46,1.39,1.13,1.15,1.25,1.22,0.978,0.824,1.79,2.14,1.51,1.23,2.36,1.51,1.72,1.66,1.62
CC12C=CCC1C1CCC3=CC(=O)CCC3(C)C1CC2 (stereo unspecified) [androstadienone],0.885 and 1.07,0.882,1.04 and 2.09,0.808 and 0.936,1.05 and 1.12,1.36 and 0.699,0.806 and 1.29,0.833 and 0.853,0.801 and 1.12,,,1.18,0.834,0.93,1.07 and 1.22,1.29,1.27,1.76,0.842,0.9 and 1.08
CC(C)C(=O)O [isobutyric acid],0.914 and 0.988,0.791,0.884 and 0.945,0.875 and 0.95,0.973 and 0.961,1.21 and 0.727,1.22 and 1.03,0.902 and 0.813,1.01 and 0.891,1.16,0.969,1.05,0.685,0.741,0.923 and 0.883,1.21,1.09,1.09,0.763,0.793 and 0.873
C=C(C)C1CC=CCC1 (stereo unspecified) [r-limonene],0.861 and 0.577,1.21 and 0.931,0.764 and 0.308,1.21 and 0.449,0.769 and 0.424,,0.976 and 1.07 and 0.641,0.954 and 0.524,1.07 and 0.83 and 0.751,0.993,1.44,1.18 and 0.404,1.31 and 1.25,1.04 and 0.463,1.02 and 0.552 and 1.19,0.947 and 0.524,0.98 and 0.578,1.39 and 2.48,1 and 0.966,0.836 and 0.472
CC(C)(C)c1ccc(CCC=O)cc1 [bourgeonal],0.601,0.227,0.661,0.465,0.654,0.657,0.983,0.625,1.02,,,0.598,0.1,0.545,0.84,0.797,0.741,0.762,0.175,0.626
CCCCCCCCCC=O [decyl aldehyde],1.18,1.27,1.03,1.2,1.42,1.22,1.25,1.05,1.55,0.864,0.399,1.12,1.59,1.21,1.16,1.58,1.14,1.31,1.47,1.16
CC1COCc2cc3c(cc21)C(C)(C)C(C)C3(C)C (stereo unspecified) [galaxolide],1.16 and 1.47,2.94,,2.88 and 3.4,1.06 and 1.33,3.64 and 3.19,3.13 and 5.69,,6.64 and 4.49,,0.341 and 0.544,0.905,2.93,0.663,7.02 and 4.04,1.04,0.868,4.27,2.4,0.873 and 1.13
O=C1CCCCC1 [Cyclohexanone],0.764,1.01,0.841,0.668,0.584,0.351,1.16 and 0.649,0.56,1 and 0.931,,,0.641,0.667,0.641,0.427 and 1.19,1.04,0.671,1.21,0.946,0.638
COC(=O)c1ccccc1O [methyl salicylate],0.881,0.937,0.985,0.836,0.948,0.732,1.04,0.99,0.841,0.911,0.794,0.826,1.13,0.957,0.881,0.903,0.855,0.963,1.38,0.737
C=C(C)C1CCC2=CC(=O)CC(C)C2(C)C1 (stereo unspecified) [amyl laurate],,,,,,,,,,2.04,0.693,,,,,,,,,
C=CCSCC=C [diallyl sulfide],0.931,0.98,0.879,0.905,0.936,0.957,0.891,1.02,1.4,0.83,0.531,1.04,1.3,0.971,1.26,1.08,1.24,0.977,1.34,1.1
CCCCCC(C)=O [2-heptanone],1.58,1.01,3.7,1.09,0.549,0.755,,3.05,0.766 and 0.639,,,0.826,0.924,1.11,1.04,1.36,0.986,0.909,0.856,2.37
CCCCCCC=O [heptaldehyde],0.72 and 0.703 and 1.17,1.11 and 0.689,0.661 and 0.822 and 0.985,1.43 and 1.04 and 1.11,0.442 and 0.918 and 1.15,,,0.691 and 0.934 and 0.825,,0.834,0.92,,0.923 and 0.948,0.414 and 0.821,,,,2.5 and 2.55,1.09 and 0.763,0.688 and 0.755 and 0.984
COc1cc(C)ccc1O [2-methoxy-4-methylphenol],1.25,0.977,0.831,0.993,1.27,1.16,0.796,0.694,0.938,0.912,0.563,1.22,1.02,1.13,0.901,0.971,0.689,1.92,1.68,1.1
CC(C)(O)CCCC1=CCC(C=O)CC1 (stereo unspecified) [lyral],,,,,,,,,,0.929,0.657,,,,,,,,,
CCCCCCCC=O [octyl aldehyde],1.1,0.683,0.948,1.16,1.02,1.19,1.05,1.08,0.917,0.827,0.926,1.2,0.756,1.17,0.811,0.911,0.955,1.23,0.835,0.953
CC12C=CCC1C1CCC3CC(=O)CCC3(C)C1CC2 (stereo unspecified) [androstenone],1.32,0.401,3.99,1.36,1.37,1.73,0.986,1.02,1.09,,,5.7,0.814,7.7,1.19,6.61,5.35,1.18,1.24,1.13
O=C1CCCCCCCCCCCCCCO1 [pentadecalactone],0.827,1.21,0.717,0.74,0.643,0.88,0.722,0.886,0.781,0.668,0.785,0.948,1.2,0.897,0.988,0.846,0.683,0.969,1.05,0.747
CCCCCCCCOC(C)=O [octyl acetate],1.47,0.723,1.27,1.09,1.09,1.07,0.992,1.11,0.961,0.655,0.778,1.24,0.96,1.14,0.772,0.925,1.01,0.928,0.796,0.972
CC(C)=CCCC(C)=CC=O [citral],0.841,0.355,1.22,0.784,1.34,1.05,1.23,1.24,1.48,1.09,0.416,1.12,0.151,0.853,0.86,1.07,0.996,1.13,0.297,1.06
CC1=NC(C)SC1C (stereo unspecified),1.19,1.11,1.18,1.04,1.73,0.976,1.25 and 1.16,0.651,0.908 and 0.95,,,0.913,1.09,1.01,1.28 and 0.971,0.688,0.797,1.12,1.09,1.06
"CC1CCC(C(C)C)C(O)C1 (single isomer, unassigned; (+)) [(+)-menthol]",0.811,1.61,0.907,0.664,0.82,1.01,1.06,0.558,1.18,0.834,0.109,1.12,1.06,1.01,0.928,1.1,1.01,2.34,0.969,0.946

# Shown tab-delimited: part of the list above
Structure (SMILES)	odorant receptor activation (OR7C2 clone 1292)	odorant receptor activation (OR7D2 clone 1405)	odorant receptor activation (OR7D4 clone 1298)	odorant receptor activation (OR7E24 P242S clone 1314)	odorant receptor activation (OR7G1 clone 1295)	odorant receptor activation [1]	odorant receptor activation (OR7G2 clone 1475)	odorant receptor activation (OR7G3 clone 1297)	odorant receptor activation (OR8A1 clone 1503)	odorant receptor activation (OR8B12 clone 1731)	odorant receptor activation [2]	odorant receptor activation (OR8B4 E22G clone 1227)	odorant receptor activation [3]	odorant receptor activation (OR8B8 clone 1226)	odorant receptor activation (OR8B8 clone 1504)	odorant receptor activation (OR8D1 clone 1142)	odorant receptor activation (OR8D2 clone 1179)	odorant receptor activation [4]	odorant receptor activation (OR8G1 clone 1395)	odorant receptor activation (OR8G5 clone 1323)
COC(=O)c1ccccc1 [methyl benzoate]	0.874	0.98	0.832	0.888	0.833	0.56	1.01 and 0.717	1.32	0.829 and 1.07			0.871	0.81	0.625	0.572 and 1.2	1.01	0.94	2.19	1.02	1.09
CCC1(O)C2(C)CCC(C2)C1(C)C (stereo unspecified) [2-ethylfenchol]	0.931	0.782	1	0.613	1.14	0.871	1.09	0.665	1.27	0.933	0.401	1.19	0.701	1.44	1.19	0.683	0.935	2.39	0.746	0.742
